From article PMC11904178
Results are given in words; binding and its absence hold for the method and conditions named. Binding seen in cells or lysates may run through a third protein. Some binding calls cover weakened binding; strength is not graded here. Where a sequence is shown, tags or fusion partners need not be part of it.

T1: CPSF3-Myc (cleavage and polyadenylation specific factor 3) (human) (UniProt Q9UKF6)
T1 sequence: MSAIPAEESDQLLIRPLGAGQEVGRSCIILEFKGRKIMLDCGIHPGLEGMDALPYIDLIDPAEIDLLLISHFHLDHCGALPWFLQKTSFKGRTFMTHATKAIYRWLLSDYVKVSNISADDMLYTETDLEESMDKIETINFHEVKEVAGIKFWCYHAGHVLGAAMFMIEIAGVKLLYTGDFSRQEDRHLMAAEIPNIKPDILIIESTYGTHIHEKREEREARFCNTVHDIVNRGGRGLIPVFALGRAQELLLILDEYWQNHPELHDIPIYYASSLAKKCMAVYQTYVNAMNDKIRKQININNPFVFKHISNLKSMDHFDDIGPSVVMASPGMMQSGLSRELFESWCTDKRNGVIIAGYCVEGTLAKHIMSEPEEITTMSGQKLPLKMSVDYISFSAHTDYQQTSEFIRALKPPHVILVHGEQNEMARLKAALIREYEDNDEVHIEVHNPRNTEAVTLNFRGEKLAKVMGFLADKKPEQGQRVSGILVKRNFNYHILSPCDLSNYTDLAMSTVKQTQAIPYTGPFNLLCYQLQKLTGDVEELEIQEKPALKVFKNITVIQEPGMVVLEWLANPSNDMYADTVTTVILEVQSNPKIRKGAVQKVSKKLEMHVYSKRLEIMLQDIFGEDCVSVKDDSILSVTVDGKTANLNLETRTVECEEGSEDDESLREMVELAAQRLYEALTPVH


Target: T1, CPSF3-Myc (cleavage and polyadenylation specific factor 3) (human)
Experiment: co-IP; HEK 293T co-transfected with CPSF3-Myc and Flag-UBE3D or one of its mutants; 20 uM MG132 for 6 h before harvest; lysis in co-IP RIPA (50 mM Tris-HCl pH 7.5, 1% NP40, 0.03% SDS, 1 mM EDTA, 150 mM NaCl); anti-Myc or anti-Flag antibody overnight at 4 °C, protein A+G agarose, immunoblot

| binding | Binder |
| --- | --- |
| binds | Flag-UBE3D-N (1-187 a.a.) (domain or fragment, UniProt Q7Z6J8 1-187) MAASAAETRVFLEVRGQLQSALLILGEPKEGGMPMNISIMPSSLQMKTPEGCTEIQLPAEVRLVPSSCRGLQFVVGDGLHLRLQTQAKLGTKLISMFNQSSQTQECCTFYCQSCGEVIIKDRKLLRVLPLPSENWGALVGEWCCHPDPFANKSLHPQENDCFIGDSFFLVNLRTSLWQQRPELSPVE |
| binds | Flag-UBE3D (Ubiquitin protein ligase E3D), wild type (protein, UniProt Q7Z6J8 1-389) MAASAAETRVFLEVRGQLQSALLILGEPKEGGMPMNISIMPSSLQMKTPEGCTEIQLPAEVRLVPSSCRGLQFVVGDGLHLRLQTQAKLGTKLISMFNQSSQTQECCTFYCQSCGEVIIKDRKLLRVLPLPSENWGALVGEWCCHPDPFANKSLHPQENDCFIGDSFFLVNLRTSLWQQRPELSPVEMCCVSSDNHCKLEPKANTKVICKRCKVMLGETVSSETTKFYMTEIIIQSSERSFPIIPRSWFVQSVIAQCLVQLSSARSTFRFTIQGQDDKVYILLWLLNSDSLVIESLRNSKYIKKFPLLENTFKADSSSAWSAVKVLYQPCIKSRNEKLVSLWESDISVHPLTLPSATCLELLLILSKSNANLPSSLRRVNSFQVAFLKM |
| binds | Flag-UBE3D-dm (T357A/C358S), dominant negative mutant of UBE3D (protein, UniProt Q7Z6J8 1-389) MAASAAETRVFLEVRGQLQSALLILGEPKEGGMPMNISIMPSSLQMKTPEGCTEIQLPAEVRLVPSSCRGLQFVVGDGLHLRLQTQAKLGTKLISMFNQSSQTQECCTFYCQSCGEVIIKDRKLLRVLPLPSENWGALVGEWCCHPDPFANKSLHPQENDCFIGDSFFLVNLRTSLWQQRPELSPVEMCCVSSDNHCKLEPKANTKVICKRCKVMLGETVSSETTKFYMTEIIIQSSERSFPIIPRSWFVQSVIAQCLVQLSSARSTFRFTIQGQDDKVYILLWLLNSDSLVIESLRNSKYIKKFPLLENTFKADSSSAWSAVKVLYQPCIKSRNEKLVSLWESDISVHPLTLPSAASLELLLILSKSNANLPSSLRRVNSFQVAFLKM |
| binds | Flag-UBE3D-C (188-389 a.a.) (domain or fragment, UniProt Q7Z6J8 188-389) MCCVSSDNHCKLEPKANTKVICKRCKVMLGETVSSETTKFYMTEIIIQSSERSFPIIPRSWFVQSVIAQCLVQLSSARSTFRFTIQGQDDKVYILLWLLNSDSLVIESLRNSKYIKKFPLLENTFKADSSSAWSAVKVLYQPCIKSRNEKLVSLWESDISVHPLTLPSATCLELLLILSKSNANLPSSLRRVNSFQVAFLKM |
